{"source": "PubChem BioAssay AID1508588 (Peter MacCallum Cancer Centre, 2020)", "purpose": "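Knock-downs boosting vemurafenib effects on melanoma cell growth or lactate release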 (primary screen)", "system": "human WM266.4 melanoma cells (BRAF V600 mutant)", "reagents": "siRNA pool against human genes, 40 nM", "timing": "96 h from transfection to read-out", "challenge": "vemurafenib 300 nM (about IC25), added 48 h after transfection, for 48 h; comparison arm got DMSO vehicle only", "measured": "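Ratios to non-targeting siRNA for cell gain, counted as DAPI nuclei after minus before drug and averaged over two replicates, and for absorbance-read medium lactate per cell; both binned into fold-change classes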", "direction": "cell gain with vemurafenib: higher = more cell gain than with non-targeting siRNA; lactate per cell with vemurafenib: higher = more lactate made per cell", "hit rule": "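Enhancement is called by pairing each knock-down's vehicle-arm and drug-arm fold-change classes for viability or glycolysis; which class combinations qualify is not given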", "meaning of the calls": "active = enhances vemurafenib effect; inactive = no enhancement seen", "note": "Here is one part, drawn at random, of about 18,000 deposited reagents. 790 of all reagents (4.4%) count as active. 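Calls rest on a combination of fold-change classes in drug and vehicle arms, not all shown here.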"}
{"gene knocked down": "NANOS1 (nanos C2HC-type zinc finger 1)", "cell gain with vemurafenib": 0.18, "lactate per cell with vemurafenib": 0.5, "activity call": "inactive"}
{"gene knocked down": "OPTC (opticin)", "cell gain with vemurafenib": 0.3, "lactate per cell with vemurafenib": 1.36, "activity call": "inactive"}
{"gene knocked down": "ESRP2 (epithelial splicing regulatory protein 2)", "cell gain with vemurafenib": 0.09, "lactate per cell with vemurafenib": 0.71, "activity call": "inactive"}
{"gene knocked down": "PTPRS (protein tyrosine phosphatase receptor type S)", "cell gain with vemurafenib": 0.31, "lactate per cell with vemurafenib": 0.4, "activity call": "inactive"}
{"gene knocked down": "UBE2R2 (ubiquitin conjugating enzyme E2 R2)", "cell gain with vemurafenib": 0.85, "lactate per cell with vemurafenib": 1, "activity call": "inactive"}
{"gene knocked down": "OR2T5 (olfactory receptor family 2 subfamily T member 5)", "cell gain with vemurafenib": 0.43, "lactate per cell with vemurafenib": 0.24, "activity call": "inactive"}
{"gene knocked down": "NWD1 (NACHT and WD repeat domain containing 1)", "cell gain with vemurafenib": 0.27, "lactate per cell with vemurafenib": 0.62, "activity call": "inactive"}
{"gene knocked down": "NLGN4Y (neuroligin 4 Y-linked)", "cell gain with vemurafenib": 0.6, "lactate per cell with vemurafenib": 1.19, "activity call": "inactive"}
{"gene knocked down": "TMEM108 (transmembrane protein 108)", "cell gain with vemurafenib": 0.59, "lactate per cell with vemurafenib": 0.86, "activity call": "inactive"}
{"gene knocked down": "ZNF362 (zinc finger protein 362)", "cell gain with vemurafenib": 1.2, "lactate per cell with vemurafenib": 0.92, "activity call": "inactive"}
{"gene knocked down": "OR4A16 (olfactory receptor family 4 subfamily A member 16)", "cell gain with vemurafenib": 0.32, "lactate per cell with vemurafenib": 0.82, "activity call": "inactive"}
{"gene knocked down": "HLA-DPA1 (major histocompatibility complex, class II, DP alpha 1)", "cell gain with vemurafenib": 0.68, "lactate per cell with vemurafenib": 0.82, "activity call": "inactive"}
{"gene knocked down": "GNG3 (G protein subunit gamma 3)", "cell gain with vemurafenib": 0.89, "lactate per cell with vemurafenib": 0.56, "activity call": "inactive"}
{"gene knocked down": "KCNG1", "cell gain with vemurafenib": 0.86, "lactate per cell with vemurafenib": 0.85, "activity call": "inactive"}
{"gene knocked down": "BMAL2 (basic helix-loop-helix ARNT like 2)", "cell gain with vemurafenib": 0.6, "lactate per cell with vemurafenib": 1.28, "activity call": "inactive"}
{"gene knocked down": "PRH2 (proline rich protein HaeIII subfamily 2)", "cell gain with vemurafenib": 0.67, "lactate per cell with vemurafenib": 1.62, "activity call": "inactive"}
{"gene knocked down": "LCORL (ligand dependent nuclear receptor corepressor like)", "cell gain with vemurafenib": 0.39, "lactate per cell with vemurafenib": 1.51, "activity call": "inactive"}
{"gene knocked down": "IL4R (interleukin 4 receptor)", "cell gain with vemurafenib": 0.56, "lactate per cell with vemurafenib": 0.52, "activity call": "inactive"}
{"gene knocked down": "IFT56 (intraflagellar transport 56)", "cell gain with vemurafenib": 0.83, "lactate per cell with vemurafenib": 0.75, "activity call": "inactive"}
{"gene knocked down": "TMEM53 (transmembrane protein 53)", "cell gain with vemurafenib": 0.21, "lactate per cell with vemurafenib": 1.73, "activity call": "inactive"}
{"gene knocked down": "ZPR1 (ZPR1 zinc finger)", "cell gain with vemurafenib": 0.38, "lactate per cell with vemurafenib": 1.07, "activity call": "inactive"}
{"gene knocked down": "CELF4 (CUGBP Elav-like family member 4)", "cell gain with vemurafenib": 1.03, "lactate per cell with vemurafenib": 0.88, "activity call": "inactive"}
{"gene knocked down": "MAGEA9B (MAGE family member A9B)", "cell gain with vemurafenib": 0.95, "lactate per cell with vemurafenib": 0.44, "activity call": "active"}
{"gene knocked down": "TRNT1 (tRNA nucleotidyl transferase 1)", "cell gain with vemurafenib": 0.19, "lactate per cell with vemurafenib": 3.03, "activity call": "inactive"}
{"gene knocked down": "RPS19BP1 (ribosomal protein S19 binding protein 1)", "cell gain with vemurafenib": 0.74, "lactate per cell with vemurafenib": 0.63, "activity call": "inactive"}
{"gene knocked down": "NEGR1 (neuronal growth regulator 1)", "cell gain with vemurafenib": 0.86, "lactate per cell with vemurafenib": 1.16, "activity call": "inactive"}
{"gene knocked down": "CORIN (corin, serine peptidase)", "cell gain with vemurafenib": 0.96, "lactate per cell with vemurafenib": 0.62, "activity call": "inactive"}
{"gene knocked down": "OR4D11 (olfactory receptor family 4 subfamily D member 11)", "cell gain with vemurafenib": 0.92, "lactate per cell with vemurafenib": 0.64, "activity call": "inactive"}
{"gene knocked down": "GPC2 (glypican 2)", "cell gain with vemurafenib": 0.64, "lactate per cell with vemurafenib": 0.3, "activity call": "inactive"}
{"gene knocked down": "ZNF570 (zinc finger protein 570)", "cell gain with vemurafenib": 0.41, "lactate per cell with vemurafenib": 0.97, "activity call": "inactive"}
{"gene knocked down": "HACD2 (3-hydroxyacyl-CoA dehydratase 2)", "cell gain with vemurafenib": 0.58, "lactate per cell with vemurafenib": 1.34, "activity call": "inactive"}
{"gene knocked down": "GRAP2 (GRB2 related adaptor protein 2)", "cell gain with vemurafenib": 0.82, "lactate per cell with vemurafenib": 0.8, "activity call": "inactive"}
{"gene knocked down": "MAGEA5P (MAGE family member A5, pseudogene)", "cell gain with vemurafenib": 0.63, "lactate per cell with vemurafenib": 0.8, "activity call": "inactive"}
{"gene knocked down": "IL13RA1 (interleukin 13 receptor subunit alpha 1)", "cell gain with vemurafenib": 0.27, "lactate per cell with vemurafenib": 1.07, "activity call": "inactive"}
{"gene knocked down": "OPTN (optineurin)", "cell gain with vemurafenib": 0.03, "lactate per cell with vemurafenib": 2.8, "activity call": "inactive"}
{"gene knocked down": "CHD4 (chromodomain helicase DNA binding protein 4)", "cell gain with vemurafenib": 0.36, "lactate per cell with vemurafenib": 1.66, "activity call": "inactive"}
{"gene knocked down": "CTDSP1 (CTD small phosphatase 1)", "cell gain with vemurafenib": 0.6, "lactate per cell with vemurafenib": 0.83, "activity call": "inactive"}
{"gene knocked down": "RLIG1 (RNA 5'-phosphate and 3'-OH ligase 1)", "cell gain with vemurafenib": 0.44, "lactate per cell with vemurafenib": 0.11, "activity call": "inactive"}
{"gene knocked down": "CERS1 (ceramide synthase 1)", "cell gain with vemurafenib": 0.62, "lactate per cell with vemurafenib": 0.8, "activity call": "inactive"}
{"gene knocked down": "H2AB3 (H2A.B variant histone 3)", "cell gain with vemurafenib": 0.52, "lactate per cell with vemurafenib": 1.31, "activity call": "inactive"}
{"gene knocked down": "KLRD1 (killer cell lectin like receptor D1)", "cell gain with vemurafenib": 0.43, "lactate per cell with vemurafenib": 1.44, "activity call": "inactive"}
{"gene knocked down": "STX1A (syntaxin 1A)", "cell gain with vemurafenib": 0.94, "lactate per cell with vemurafenib": 0.7, "activity call": "inactive"}
{"gene knocked down": "ZFYVE9 (zinc finger FYVE-type containing 9)", "cell gain with vemurafenib": 0.71, "lactate per cell with vemurafenib": 1.55, "activity call": "inactive"}
{"gene knocked down": "TAAR2 (trace amine associated receptor 2)", "cell gain with vemurafenib": 0.58, "lactate per cell with vemurafenib": 1.48, "activity call": "inactive"}
{"gene knocked down": "GARIN4 (golgi associated RAB2 interactor family member 4)", "cell gain with vemurafenib": 0.28, "lactate per cell with vemurafenib": 0.4, "activity call": "active"}
{"gene knocked down": "CHRNE (cholinergic receptor nicotinic epsilon subunit)", "cell gain with vemurafenib": 0.92, "lactate per cell with vemurafenib": 0.66, "activity call": "inactive"}
{"gene knocked down": "ATP13A5 (ATPase 13A5)", "cell gain with vemurafenib": 0.39, "lactate per cell with vemurafenib": 0.76, "activity call": "inactive"}
{"gene knocked down": "GARIN5A (golgi associated RAB2 interactor 5A)", "cell gain with vemurafenib": 0.67, "lactate per cell with vemurafenib": 1.46, "activity call": "inactive"}
{"gene knocked down": "G3BP1 (G3BP stress granule assembly factor 1)", "cell gain with vemurafenib": 0.69, "lactate per cell with vemurafenib": 0.4, "activity call": "inactive"}
{"gene knocked down": "RAB1B (RAB1B, member RAS oncogene family)", "cell gain with vemurafenib": 0.04, "lactate per cell with vemurafenib": 3.66, "activity call": "inactive"}
{"gene knocked down": "BRAP (BRCA1 associated protein)", "cell gain with vemurafenib": 0.71, "lactate per cell with vemurafenib": 1.22, "activity call": "inactive"}
{"gene knocked down": "ADAMTSL2 (ADAMTS like 2)", "cell gain with vemurafenib": 0.6, "lactate per cell with vemurafenib": 1.26, "activity call": "inactive"}

In a second layout: entries from further up.
NANOS1 (nanos C2HC-type zinc finger 1)
- cell gain with vemurafenib: 0.18
- lactate per cell with vemurafenib: 0.5
- activity call: inactive

OPTC (opticin)
- cell gain with vemurafenib: 0.3
- lactate per cell with vemurafenib: 1.36
- activity call: inactive

ESRP2 (epithelial splicing regulatory protein 2)
- cell gain with vemurafenib: 0.09
- lactate per cell with vemurafenib: 0.71
- activity call: inactive

PTPRS (protein tyrosine phosphatase receptor type S)
- cell gain with vemurafenib: 0.31
- lactate per cell with vemurafenib: 0.4
- activity call: inactive

UBE2R2 (ubiquitin conjugating enzyme E2 R2)
- cell gain with vemurafenib: 0.85
- lactate per cell with vemurafenib: 1
- activity call: inactive
